Measured values as given in PubChem BioAssay (NCI).
What follows is the remainder of the data, with few or none of the hits. Activity calls are given as the source filed them. Rule as the data show it: active = growth inhibition above about 70%; inactive = the rest.

Columns and labels:
[1] = NCI Yeast Anticancer Drug Screen. Data for the rad52 strain (AID 147);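 also: 0% = growth of vehicle-treated control cultures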; conditions: S. cerevisiae rad52 mutant growth inhibition, active compounds read high
Summary of the method: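 Genetically altered yeast (DNA damage repair defect) treated with compound; inhibition calculated relative to vehicle.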

[2] = NCI Yeast Anticancer Drug Screen. Data for the wt1 strain (AID 149);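 also: 0% = growth of vehicle-treated wt1 cultures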; conditions: S. cerevisiae wt1 strain (SPY 50644) growth inhibition, active compounds read high
Summary of the method: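 wt1 strain grown with compound or vehicle; inhibition taken from the growth difference.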

[3] = NCI Yeast Anticancer Drug Screen. Data for the rad50EPP+ strain (AID 151);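 also: 0% = growth of vehicle-treated control cultures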; conditions: S. cerevisiae rad50 mutant strain, active compounds read high
Summary of the method: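 Strain rad50EPP+; compound exposure; % growth inhibition vs vehicle.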

[4] = NCI Yeast Anticancer Drug Screen. Data for the mgt1 strain (AID 153); conditions: S. cerevisiae mgt1 mutant growth inhibition, active compounds read high
Summary of the method: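 Read-out: yeast growth inhibition vs vehicle control. Strain mgt1, drawn from a panel altered in DNA damage repair or cell cycle control.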

[5] = NCI Yeast Anticancer Drug Screen. Data for the rad14 strain (AID 159);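 also: 0% = growth of vehicle-treated control cultures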; conditions: S. cerevisiae rad14 strain growth inhibition, active compounds read high
Summary of the method: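 DNA repair-defective yeast, compound-exposed; % growth inhibition derived by comparison with vehicle-treated controls.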

[6] = NCI Yeast Anticancer Drug Screen. Data for the CLN2oe strain (AID 163);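 also: 0% = growth of vehicle-only control cultures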; conditions: S. cerevisiae CLN2oe strain, active compounds read high
Summary of the method: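 Strain altered in cell-cycle control, incubated with compound; growth compared to solvent-treated controls.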

[7] = NCI Yeast Anticancer Drug Screen. Data for the wt2 strain (AID 169);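 also: 0% = growth of vehicle-treated yeast cultures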; conditions: S. cerevisiae wt2 strain growth inhibition, active compounds read high
Summary of the method: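 Steps: yeast strain treated with compound; growth recorded; inhibition calculated relative to cultures given vehicle alone.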

[8] = NCI Yeast Anticancer Drug Screen. Data for the mlh1 strain (AID 171);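 also: 0% = growth of vehicle-treated control cultures of the same strain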; conditions: S. cerevisiae mlh1 strain growth inhibition, active compounds read high
Summary of the method: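 Yeast screen: mutant strain plus compound, growth scored against vehicle control wells.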

[9] = NCI Yeast Anticancer Drug Screen. Data for the sgs1 strain (AID 173);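 also: 0% = growth of vehicle-only control cultures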; conditions: S. cerevisiae sgs1 mutant, active compounds read high
Summary of the method: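 Inhibition of yeast growth served as the measure. The mutant strain was treated with each compound, and growth was normalised to cultures receiving vehicle alone.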

[10] = NCI Yeast Anticancer Drug Screen. Data for the rad18 strain (AID 177); conditions: S. cerevisiae rad18 mutant growth inhibition, active compounds read high
Summary of the method: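 Inhibition values reflect reduced yeast growth compared with vehicle-treated controls, using a strain engineered with a DNA damage repair defect.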

Measured: growth inhibition

CSC1=NS(=O)(=O)c2cc(C(=O)NN(C)C(=O)c3cc4c(cc3Cl)SC(SC)=NS4(=O)=O)c(Cl)cc2S1
inactive: [1]; at 1.2 µM 1% | [1]; at 3.7 µM 0% | [1]; at 11.0 µM -2% | [1]; at 33.0 µM -8% | [1]; at 100.0 µM -1% | [2]; at 1.2 µM 5% | [2]; at 3.7 µM 11% | [2]; at 11.0 µM 12% | [2]; at 33.0 µM 13% | [2]; at 100.0 µM 8% | [3]; at 1.2 µM -3% | [3]; at 3.7 µM -2% | [3]; at 11.0 µM -2% | [3]; at 33.0 µM -6% | [3]; at 100.0 µM -18% | [4]; at 1.2 µM 3% | [4]; at 3.7 µM 7% | [4]; at 11.0 µM 7% | [4]; at 33.0 µM -6% | [4]; at 100.0 µM 5% | [5]; at 1.2 µM -3% | [5]; at 3.7 µM 2% | [5]; at 11.0 µM 4% | [5]; at 33.0 µM 4% | [5]; at 100.0 µM 2% | [6]; at 1.2 µM 5% | [6]; at 3.7 µM 8% | [6]; at 11.0 µM 3% | [6]; at 33.0 µM 3% | [6]; at 100.0 µM -5% | [7]; at 1.2 µM 4% | [7]; at 3.7 µM 8% | [7]; at 11.0 µM 6% | [7]; at 33.0 µM 8% | [7]; at 100.0 µM 5% | [8]; at 1.2 µM 1% | [8]; at 3.7 µM 3% | [8]; at 11.0 µM 3% | [8]; at 33.0 µM 0% | [8]; at 100.0 µM -4% | [9]; at 1.2 µM 1% | [9]; at 3.7 µM 4% | [9]; at 11.0 µM 3% | [9]; at 33.0 µM 2% | [9]; at 100.0 µM -1% | [10]; at 1.2 µM 0% | [10]; at 3.7 µM 2% | [10]; at 11.0 µM 0% | [10]; at 33.0 µM -4% | [10]; at 100.0 µM -15%

Nc1nc(N)c2[nH]c(CNc3ccc(C(=O)O)cc3)nc2n1
inactive: [1]; at 1.2 µM -2% | [1]; at 3.7 µM -2% | [1]; at 11.0 µM -2% | [1]; at 33.0 µM -4% | [1]; at 100.0 µM -12% | [2]; at 1.2 µM 0% | [2]; at 3.7 µM 0% | [2]; at 11.0 µM 0% | [2]; at 33.0 µM -3% | [2]; at 100.0 µM -1% | [3]; at 1.2 µM -5% | [3]; at 3.7 µM -2% | [3]; at 11.0 µM -1% | [3]; at 33.0 µM -2% | [3]; at 100.0 µM -4% | [4]; at 1.2 µM 1% | [4]; at 3.7 µM -1% | [4]; at 11.0 µM -1% | [4]; at 33.0 µM -1% | [4]; at 100.0 µM -3% | [5]; at 1.2 µM -1% | [5]; at 3.7 µM -3% | [5]; at 11.0 µM -4% | [5]; at 33.0 µM -9% | [5]; at 100.0 µM -3% | [6]; at 1.2 µM -2% | [6]; at 3.7 µM 1% | [6]; at 11.0 µM 0% | [6]; at 33.0 µM 1% | [6]; at 100.0 µM -1% | [7]; at 1.2 µM -1% | [7]; at 3.7 µM -1% | [7]; at 11.0 µM -1% | [7]; at 33.0 µM -2% | [7]; at 100.0 µM -7% | [8]; at 1.2 µM 0% | [8]; at 3.7 µM 1% | [8]; at 11.0 µM 2% | [8]; at 33.0 µM -6% | [8]; at 100.0 µM -3% | [9]; at 1.2 µM -2% | [9]; at 3.7 µM 1% | [9]; at 11.0 µM 0% | [9]; at 33.0 µM -2% | [9]; at 100.0 µM -8%

COc1ccc(OC)c(/C=C(/C#N)C(N)=O)c1
inactive: [1]; at 1.2 µM -5% | [1]; at 3.7 µM -8% | [1]; at 11.0 µM -14% | [1]; at 33.0 µM -12% | [1]; at 100.0 µM 6% | [2]; at 1.2 µM -3% | [2]; at 3.7 µM -2% | [2]; at 11.0 µM -2% | [2]; at 33.0 µM 0% | [2]; at 100.0 µM 4% | [4]; at 1.2 µM -2% | [4]; at 3.7 µM -3% | [4]; at 11.0 µM -1% | [4]; at 33.0 µM 8% | [4]; at 100.0 µM 2% | [5]; at 1.2 µM -4% | [5]; at 3.7 µM -3% | [5]; at 11.0 µM -1% | [5]; at 33.0 µM 0% | [5]; at 100.0 µM 7% | [6]; at 1.2 µM 1% | [6]; at 3.7 µM 1% | [6]; at 11.0 µM 0% | [6]; at 33.0 µM 4% | [6]; at 100.0 µM 5% | [7]; at 1.2 µM 1% | [7]; at 3.7 µM 4% | [7]; at 11.0 µM 3% | [7]; at 33.0 µM 1% | [7]; at 100.0 µM 0% | [8]; at 1.2 µM 6% | [8]; at 3.7 µM -2% | [8]; at 11.0 µM -6% | [8]; at 33.0 µM -3% | [8]; at 100.0 µM -1% | [9]; at 1.2 µM 1% | [9]; at 3.7 µM 2% | [9]; at 11.0 µM 5% | [9]; at 33.0 µM 5% | [9]; at 100.0 µM 3% | [10]; at 1.2 µM -6% | [10]; at 3.7 µM 0% | [10]; at 11.0 µM 2% | [10]; at 33.0 µM 3% | [10]; at 100.0 µM 8%

CCCCCC(Oc1ccc(Cl)cc1Cl)C(=O)OCC (stereo not given)
inactive: [1]; at 1.2 µM 5% | [1]; at 3.7 µM 4% | [1]; at 11.0 µM -1% | [1]; at 33.0 µM 19% | [1]; at 100.0 µM 60% | [2]; at 1.2 µM -2% | [2]; at 3.7 µM -3% | [2]; at 11.0 µM -4% | [2]; at 33.0 µM -5% | [2]; at 100.0 µM 17% | [3]; at 1.2 µM 4% | [3]; at 3.7 µM 6% | [3]; at 11.0 µM 20% | [3]; at 33.0 µM 35% | [3]; at 100.0 µM 54% | [4]; at 1.2 µM -3% | [4]; at 3.7 µM -1% | [4]; at 11.0 µM -3% | [4]; at 33.0 µM 1% | [4]; at 100.0 µM 42% | [5]; at 1.2 µM 6% | [5]; at 3.7 µM 2% | [5]; at 11.0 µM -1% | [5]; at 33.0 µM 8% | [5]; at 100.0 µM 31% | [6]; at 1.2 µM -3% | [6]; at 3.7 µM -5% | [6]; at 11.0 µM -7% | [6]; at 33.0 µM 16% | [6]; at 100.0 µM 63% | [7]; at 1.2 µM 1% | [7]; at 3.7 µM -4% | [7]; at 11.0 µM -7% | [7]; at 33.0 µM -9% | [7]; at 100.0 µM 25% | [8]; at 1.2 µM 1% | [8]; at 3.7 µM 1% | [8]; at 11.0 µM -2% | [8]; at 33.0 µM 13% | [8]; at 100.0 µM 54% | [9]; at 1.2 µM -11% | [9]; at 3.7 µM 11% | [9]; at 11.0 µM -12% | [9]; at 33.0 µM 16% | [9]; at 100.0 µM 45% | [10]; at 1.2 µM 0% | [10]; at 3.7 µM 2% | [10]; at 11.0 µM -3% | [10]; at 33.0 µM 9% | [10]; at 100.0 µM 51%
